# Percent effect of library compounds

The values are deposited in ChEMBL (CHEMBL3988442, “University of Dundee, Small-Polar-MMV Screening Library” (2021)).

T. brucei: 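Whole-parasite assay of Trypanosoma brucei over 72 hours; the read-out is not stated. Concentration: 30 µM. Higher reads as stronger inhibition (inferred: compounds with an IC50 in retests scored well above the rest). Values scatter widely below zero; nearly all retest evidence comes from the higher of the two concentrations used. Of about 64,000 compounds tested this way, about 940 (1.5%) reached 50% or more in at least one test.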
Leishmania in macrophages: 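Cell assay of Leishmania donovani living inside macrophages; the read-out is not stated. Compounds at 30 µM. Higher reads as stronger inhibition (inferred: compounds with an IC50 in retests scored well above the rest). Of about 69,000 compounds tested this way, about 1,000 (1.5%) reached 50% or more in at least one test.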
Toxoplasma: 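Assay of Toxoplasma gondii numbers, read through their beta-galactosidase reporter with a colour substrate. Concentration: 10 µM. Higher reads as fewer parasites (inferred from which compounds were picked for retests). About 67,000 compounds were tested under these conditions; 0.38% (about 260) showed 50% or more at least once.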

The filed quantity is “Percent Effect” (%).
How 0% and 100% were set is not recorded. Most values in the screen are low, and negative values occur.
This is an unselected part of the compounds tested.
A dash means the value is not listed here; it may have been measured.

| # | structure | T. brucei | Leishmania in macrophages | Toxoplasma |
|---|---|---|---|---|
| 1 | `Cc1ccc(C2COCCN2C(=O)c2ccc(F)c(F)c2)o1` (stereo not given) | 29.67% | 10.79% | -3.721% |
| 2 | `CCC(C)(C)NC(=O)c1scnc1Cl` | -71.56% | -51.51% | 1.447% |
| 3 | `[H][C@@]12CCN(Cc3csc(C)n3)C[C@@]1([H])O[C@@H](c1ccncn1)C2` | -72.82% | 15.5% | 15.83% |
| 4 | `O=C(O)C(F)(F)F.c1ccc(CN2CCCn3nnc(CNc4ncccn4)c3C2)nc1` | -15.58% | 67.35% | 6.154% |
| 5 | `Cc1nc2ccccc2nc1CN1CCCC1Cn1cncn1` (stereo not given) | -39.2% | 14.25% | -4.194% |
| 6 | `COC1CCN(S(=O)(=O)N2CCCC(c3cccc(C(=O)O)c3)C2)CC1` (stereo not given) | -21.22% | 13.88% | 2.493% |
| 7 | `Cc1cccnc1NC(=O)C1CCCN1Cc1ccccc1` (stereo not given) | -56.35% | 30.09% | 0.4405% |
| 8 | `CCn1cc(CN2CCCN(C(=O)C3(C#N)CCCCC3)CC2)cn1` | -66.07% | -21.65% | 5.475% |
| 9 | `CCN(CC)C(=O)CN(C)Cc1nc2c(cnn2C)c(=O)[nH]1` | 4.689% | 6.894% | 0.8394% |
| 10 | `CC(C)NC(=O)N1CCCn2cnc(CO)c2C1.O=C(O)C(F)(F)F` | -21.51% | 34.18% | -3% |
| 11 | `CCOCC(O)CN1CCN(C(=O)c2cccc3[nH]ncc23)CC1` (stereo not given) | 10.23% | 10.8% | 4.938% |
| 12 | `CNC(=O)c1cn2cc(-c3ccc(F)cc3)n(CC=C(C)C)c(=O)c2n1` | -88.78% | -8.849% | -21.25% |
| 13 | `[H][C@@]12CO[C@@H](CNS(C)(=O)=O)[C@]1([H])CCN(C(=O)c1ccoc1C)C2` | -4.372% | 6.207% | 10.76% |
| 14 | `CC(C)c1cc(C(=O)N(C)C(C)c2nccs2)no1` (stereo not given) | -12.4% | -7.821% | -0.5461% |
| 15 | `CC(C)n1nc(CN2CCCCC2)c2c1CN(C(=O)c1ccno1)C2.O=C(O)C(F)(F)F` | -65.47% | 35.4% | -9.517% |
| 16 | `CC(C)COCC(NC(=O)c1ccccn1)c1ccco1` (stereo not given) | 42.64% | 17.67% | 15.22% |
| 17 | `COc1cc2cc(C(=O)NC(C)C(=O)O)n(C)c2c(OC)c1OC` (stereo not given) | -75.95% | 14.22% | 17.43% |
| 18 | `CCn1nc(C)c(NC(=O)c2cc(NC(=O)C(C)C)n(C)n2)c1C` | 0.4562% | 26.81% | 1.116% |
| 19 | `COc1ccc(Cl)cc1NC(=O)CNc1ccn(CC(N)=O)n1` | -2.256% | 18.67% | -2.406% |
| 20 | `Cc1noc(CCNC(=O)NCc2ccc(OC3CCCC3)cc2)n1` | -30.35% | 19.28% | -7.241% |
| 21 | `CC1(C)CN(CC(F)(F)F)CCN1CC(=O)N1CCCCC1` | -4.589% | 17.02% | -1.535% |
| 22 | `Cc1oc(-c2ccsc2)nc1CNC(C)Cn1cccn1` (stereo not given) | -45.43% | 11.55% | -0.7088% |
| 23 | `Cc1occc1C(=O)N1CCn2cnc(COCC3CC3)c2C1` | -22.82% | 4.779% | 3.837% |
| 24 | `CC(C)COCCC(=O)NCc1cn2cc(Br)ccc2n1` | -7.155% | -17.24% | 1.395% |
| 25 | `O=C1Nc2ccccc2CN(CC2CC2)C12CCNC2` (stereo not given) | - | 19.67% | -5.373% |
| 26 | `O=C(c1sccc1C1CC1)N1CCN(CC(F)(F)F)CC1` | -20.86% | 2.964% | -15.89% |
| 27 | `Cc1c(C(=O)N(C)c2ccccc2)cccc1N(C)S(C)(=O)=O` | -14.96% | 33.75% | 13.5% |
| 28 | `CCN(CC)C(=O)Nc1cccc(Oc2ccccn2)c1` | 4.059% | -6.86% | -1.279% |
| 29 | `[H][C@]12CCC(=O)N(c3ccccc3)[C@@]1([H])CCN2C(=O)C1CC1` | -1.441% | 20.31% | 10.22% |
| 30 | `CCN(CC(=O)NCCc1nc(C)no1)Cc1ccc(Cl)cc1` | -35.03% | -9.09% | 2.704% |
| 31 | `c1ncn(CC2CN(Cc3csc(C4CCCC4)n3)CCO2)n1` (stereo not given) | 24.21% | 8.178% | -8.851% |
| 32 | `CCC(CO)N(Cc1cccs1)C(=O)CNS(=O)(=O)c1cccs1` (stereo not given) | 6.263% | 6.274% | -4.037% |
| 33 | `COc1cccc(CN2CCc3nc4ccsc4c(=O)n3CC2)c1.Cl` | -34.53% | -15.56% | -0.8214% |
| 34 | `Cc1ccccc1-c1noc(CN2CCc3nn(C)c(=O)cc3C2)n1` | 14.64% | 16.69% | -0.6111% |
| 35 | `CCN(CC)C(=O)c1c(Cl)cnn1CC` | -8.136% | 19.69% | -22.9% |
| 36 | `O=C(NCC1CCN(C(=O)c2ccoc2)CC1)c1ccccc1Br` | -55.79% | 21.98% | -1.752% |
| 37 | `O=S(=O)(NC1CCCCC12OCCO2)c1cc(F)cc(F)c1` (stereo not given) | 3.675% | -4.149% | 9.87% |
| 38 | `COCc1ccccc1CNC(=O)CN1CCC2(CCOC2)C1` (stereo not given) | -28.29% | -26.51% | -11.48% |
| 39 | `[H][C@@]12CNCC[C@]1(O)CCN(C(=O)Cc1ccc(OC)cc1OC)C2` | -6.885% | 25.84% | 3.715% |
| 40 | `Cn1cccc1C(=O)COc1ccc(S(N)(=O)=O)cc1` | -23.37% | 11.44% | -29.58% |
| 41 | `Cc1noc2ncc(C(=O)N3CCCC(n4cccn4)C3)cc12` (stereo not given) | -0.8053% | -14.27% | 4.98% |
| 42 | `CCn1cnnc1CNC(=O)N1CCC(OCc2ccccc2)CC1` | - | 20.37% | -1.685% |
| 43 | `COCCC(Cc1cccc(Br)c1)C(N)=O` (stereo not given) | 6.327% | 10.24% | -16.97% |
| 44 | `NC1CCc2c(ccc(=O)n2Cc2ccncc2)C1` (stereo not given) | -15.2% | 4.053% | -11.38% |
| 45 | `O=C(NCC(F)(F)F)c1ccc(-n2cncn2)nn1` | -0.3614% | 30.58% | 11.37% |
| 46 | `Cc1cccc(-c2nc(C)nn2CC(=O)NC2CCCC2)c1` | 29.41% | 0.2684% | 5.929% |
| 47 | `O=C(c1csc(-c2ccco2)n1)N(CC1CCOC1)C1CC1` (stereo not given) | -65.42% | 30.98% | 28.18% |
| 48 | `CCS(=O)(=O)N1CCc2ccc(NC(=O)Nc3ccccc3C)cc21` | -12.64% | -17.43% | 2.129% |
| 49 | `O=C(O)C(F)(F)F.O=C(O)C(F)(F)F.O=C(O)C(F)(F)F.[H][C@@]12CCN(Cc3nccn3C)C[C@]1([H])[C@@H](CNc1ncccn1)OC2` | -13.05% | -9.165% | 15.69% |
| 50 | `Cc1ccc(S(=O)(=O)NCC(O)c2ccoc2)s1` (stereo not given) | 2.717% | -19.14% | -4.439% |
| 51 | `CC(C)(C)CN[C@@H]1CO[C@H](CNC(=O)C2CCCC2)[C@H]1O` | -8.893% | 18.76% | 3.688% |
| 52 | `NC(=O)C(NCCc1ccc(Cl)s1)c1ccccc1` (stereo not given) | -18.9% | 11.43% | 2.596% |
| 53 | `CN1CC2(COCCN(c3ncccn3)C2)OCC1=O` (stereo not given) | -26.09% | 3.553% | 0.1012% |
| 54 | `O=C(O)C(F)(F)F.[H][C@@]12CCN(Cc3cnn(C)c3)[C@@]1([H])CCN2C(=O)Cc1cccc(F)c1` | -24.63% | 43.45% | -3.542% |
| 55 | `Cc1nn(C)c2c(N(C)Cc3cccs3)nc(C3CC3)nc12` | -63.04% | 56.51% | 20.79% |
| 56 | `O=S(=O)(Nc1nccs1)c1cc(Cl)cc2c1OCC2` | -47.68% | -8.369% | 0.7692% |
| 57 | `Cc1cccnc1NC(=O)NCc1ccc(N2CCNC(=O)C2)cc1` | 38.06% | 29.98% | 13.02% |
| 58 | `N#CCCN(CCC#N)C(=O)COC1CCCCC1` | -40.03% | 4.726% | 0.1079% |
| 59 | `COc1cccc(CNC(=O)N2CCCC(Cn3cc(CN)nn3)C2)c1` (stereo not given) | 2.302% | 17.78% | 15.73% |
| 60 | `O=C(NCCn1ccnc1)c1ccn(-c2ccccc2)n1` | 3.953% | 24.01% | -11.81% |
| 61 | `COc1ccc(C(=O)C2CCCN(Cc3ccon3)C2)c(OC)c1` (stereo not given) | -7.482% | -16.33% | -20.98% |
| 62 | `Cc1cccc2c1cnn2CCCNC(=O)C(C)C` | 5.562% | -11.19% | 15.53% |
| 63 | `Cc1cc(C(=O)N2CCn3cc(CN4CCCCC4)nc3C2)no1` | -601.8% | 22.39% | -51.32% |
| 64 | `COc1ccc(C)cc1C(=O)N1CCCC(n2nc(C)nc2C)C1` (stereo not given) | - | 9.513% | -13.06% |
| 65 | `O=S(=O)(c1ccccc1)N1CCN(CCn2ccnc2)CC1` | -75.79% | 0.5728% | -3.175% |
| 66 | `CCn1nc(C)c2nc(C)nc(NCCc3ccccc3)c21` | 92.15% | 36.57% | 19.6% |
| 67 | `Nc1ncccc1CN1CCCn2nc(CCC(=O)NC3CC3)cc2C1` | -4.758% | 21.24% | 22.75% |

Repeated from the top, 5 entries:

{"structure": "Cc1ccc(C2COCCN2C(=O)c2ccc(F)c(F)c2)o1", "stereo": "stereo not given", "T. brucei": 29.67, "Leishmania in macrophages": 10.79, "Toxoplasma": -3.721}
{"structure": "CCC(C)(C)NC(=O)c1scnc1Cl", "T. brucei": -71.56, "Leishmania in macrophages": -51.51, "Toxoplasma": 1.447}
{"structure": "[H][C@@]12CCN(Cc3csc(C)n3)C[C@@]1([H])O[C@@H](c1ccncn1)C2", "T. brucei": -72.82, "Leishmania in macrophages": 15.5, "Toxoplasma": 15.83}
{"structure": "O=C(O)C(F)(F)F.c1ccc(CN2CCCn3nnc(CNc4ncccn4)c3C2)nc1", "T. brucei": -15.58, "Leishmania in macrophages": 67.35, "Toxoplasma": 6.154}
{"structure": "Cc1nc2ccccc2nc1CN1CCCC1Cn1cncn1", "stereo": "stereo not given", "T. brucei": -39.2, "Leishmania in macrophages": 14.25, "Toxoplasma": -4.194}